Amino acid sequences for entries named in this document (tags omitted). Residues count along the entry.
UniProt P11717, residues 41-2491: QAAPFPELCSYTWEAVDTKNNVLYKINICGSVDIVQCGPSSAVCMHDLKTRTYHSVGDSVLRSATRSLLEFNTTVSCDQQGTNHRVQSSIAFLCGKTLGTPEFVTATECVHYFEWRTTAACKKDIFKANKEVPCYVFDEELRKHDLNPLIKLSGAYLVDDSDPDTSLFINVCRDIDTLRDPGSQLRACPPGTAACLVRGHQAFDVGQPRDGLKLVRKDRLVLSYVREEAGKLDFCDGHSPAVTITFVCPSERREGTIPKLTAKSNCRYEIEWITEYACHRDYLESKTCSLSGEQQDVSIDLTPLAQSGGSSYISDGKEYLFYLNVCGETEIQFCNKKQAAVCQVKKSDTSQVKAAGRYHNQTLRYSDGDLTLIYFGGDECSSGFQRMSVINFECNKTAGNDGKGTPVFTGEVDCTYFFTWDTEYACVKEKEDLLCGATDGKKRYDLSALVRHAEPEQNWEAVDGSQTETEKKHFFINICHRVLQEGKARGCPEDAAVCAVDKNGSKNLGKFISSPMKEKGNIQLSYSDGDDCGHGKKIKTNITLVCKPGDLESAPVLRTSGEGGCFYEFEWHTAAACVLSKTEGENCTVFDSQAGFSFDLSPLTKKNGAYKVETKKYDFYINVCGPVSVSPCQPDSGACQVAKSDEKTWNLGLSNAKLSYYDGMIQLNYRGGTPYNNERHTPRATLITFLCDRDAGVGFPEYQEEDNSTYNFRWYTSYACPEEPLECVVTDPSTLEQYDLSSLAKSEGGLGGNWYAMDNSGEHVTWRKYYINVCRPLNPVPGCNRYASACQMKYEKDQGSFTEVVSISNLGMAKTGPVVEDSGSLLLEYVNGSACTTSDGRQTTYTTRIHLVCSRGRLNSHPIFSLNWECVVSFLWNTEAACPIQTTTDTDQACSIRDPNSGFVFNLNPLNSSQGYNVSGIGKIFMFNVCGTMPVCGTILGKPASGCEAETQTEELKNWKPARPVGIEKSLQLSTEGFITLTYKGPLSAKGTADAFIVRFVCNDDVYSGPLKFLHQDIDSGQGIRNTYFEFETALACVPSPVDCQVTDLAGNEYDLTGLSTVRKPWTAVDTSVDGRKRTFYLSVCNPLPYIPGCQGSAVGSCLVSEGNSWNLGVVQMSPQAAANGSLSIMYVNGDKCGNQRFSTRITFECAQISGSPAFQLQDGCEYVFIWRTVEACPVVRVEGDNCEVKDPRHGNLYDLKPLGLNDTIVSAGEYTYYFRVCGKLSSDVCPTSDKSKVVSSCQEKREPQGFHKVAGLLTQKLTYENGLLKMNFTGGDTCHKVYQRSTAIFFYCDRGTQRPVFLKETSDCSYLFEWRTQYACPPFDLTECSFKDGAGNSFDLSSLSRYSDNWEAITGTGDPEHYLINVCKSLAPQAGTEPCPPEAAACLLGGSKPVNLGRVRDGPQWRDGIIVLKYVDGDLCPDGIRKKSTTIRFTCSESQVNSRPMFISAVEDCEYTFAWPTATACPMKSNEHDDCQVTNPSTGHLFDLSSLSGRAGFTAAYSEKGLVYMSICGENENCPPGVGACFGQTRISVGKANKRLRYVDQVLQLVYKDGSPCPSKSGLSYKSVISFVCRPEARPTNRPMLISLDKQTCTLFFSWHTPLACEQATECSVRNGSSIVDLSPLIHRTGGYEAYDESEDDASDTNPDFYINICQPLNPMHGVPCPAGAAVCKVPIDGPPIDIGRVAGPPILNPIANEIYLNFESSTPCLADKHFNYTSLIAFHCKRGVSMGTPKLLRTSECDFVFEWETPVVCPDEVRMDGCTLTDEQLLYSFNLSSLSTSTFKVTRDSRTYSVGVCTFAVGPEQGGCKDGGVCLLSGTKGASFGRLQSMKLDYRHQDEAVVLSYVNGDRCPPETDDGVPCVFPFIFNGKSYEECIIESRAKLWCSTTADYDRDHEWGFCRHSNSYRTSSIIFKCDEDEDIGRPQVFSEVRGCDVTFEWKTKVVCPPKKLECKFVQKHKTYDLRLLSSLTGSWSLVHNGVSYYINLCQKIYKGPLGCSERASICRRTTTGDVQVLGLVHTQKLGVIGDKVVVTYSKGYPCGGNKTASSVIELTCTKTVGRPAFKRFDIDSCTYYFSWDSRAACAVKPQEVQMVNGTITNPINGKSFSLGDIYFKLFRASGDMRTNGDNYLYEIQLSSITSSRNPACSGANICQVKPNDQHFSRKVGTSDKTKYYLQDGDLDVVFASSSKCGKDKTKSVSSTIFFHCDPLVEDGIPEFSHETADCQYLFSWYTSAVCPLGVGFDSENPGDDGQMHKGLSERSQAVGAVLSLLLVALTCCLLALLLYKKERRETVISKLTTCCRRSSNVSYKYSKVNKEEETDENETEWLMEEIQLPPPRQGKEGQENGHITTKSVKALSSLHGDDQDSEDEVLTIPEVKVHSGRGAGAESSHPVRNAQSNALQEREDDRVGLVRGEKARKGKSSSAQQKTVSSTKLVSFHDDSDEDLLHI

In publication PMC5806898:

Target: T1, GST followed by the N-terminal 709 residues of SPG15 (UniProt Q68DK2)
T1 sequence: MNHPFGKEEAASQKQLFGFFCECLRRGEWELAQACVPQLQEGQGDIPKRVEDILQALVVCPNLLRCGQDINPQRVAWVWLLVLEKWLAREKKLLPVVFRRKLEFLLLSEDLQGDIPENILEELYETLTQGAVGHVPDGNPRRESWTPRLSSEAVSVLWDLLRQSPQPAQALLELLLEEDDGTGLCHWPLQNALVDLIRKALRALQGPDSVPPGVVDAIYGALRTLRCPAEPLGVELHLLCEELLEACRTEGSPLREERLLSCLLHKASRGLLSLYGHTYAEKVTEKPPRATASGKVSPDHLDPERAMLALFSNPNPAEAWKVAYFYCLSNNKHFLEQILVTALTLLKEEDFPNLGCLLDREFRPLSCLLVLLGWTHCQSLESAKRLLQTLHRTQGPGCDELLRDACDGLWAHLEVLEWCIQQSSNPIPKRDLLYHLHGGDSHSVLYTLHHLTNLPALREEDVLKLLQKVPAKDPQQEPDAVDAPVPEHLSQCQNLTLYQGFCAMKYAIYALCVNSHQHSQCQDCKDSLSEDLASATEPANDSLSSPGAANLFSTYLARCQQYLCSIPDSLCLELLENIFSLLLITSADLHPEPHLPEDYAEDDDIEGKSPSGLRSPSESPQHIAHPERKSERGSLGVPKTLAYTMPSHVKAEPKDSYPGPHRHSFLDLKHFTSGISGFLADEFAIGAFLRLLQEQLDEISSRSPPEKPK
Test: affinity purification with mass spectrometry; GST_SPG15N1–709 as bait in SH-SY5Y cell lysate (PBS with 0.5% Triton X-100, pH 7.4), recovered with glutathione Sepharose 4B; label-free quantification against GST-only pulldowns, in triplicate; only the target purified

binding: binds
Substance: cation-independent mannose 6-phosphate receptor (from UniProt P11717 41-2491)

These are yes or no findings as the source states them, for the method shown. Binding seen in cells or lysates may run through a third protein. These calls come from enrichment with a bait or labelling near it, and not all partners need be listed. Tags and fused reporters may be left off the sequences shown.
